Patent publication EP1780277A1
Results are given in words; binding and its absence hold for the method and conditions named. Some results given as binding are weak or reduced against the parent protein; the word gives no strength. Tags and fused reporters may be left off the sequences shown.

Sequences of proteins named here, by UniProt entry; tags and fusion partners are left off. A change or cut given only in a name is not applied to a line headed by its entry.
UniProt P04386: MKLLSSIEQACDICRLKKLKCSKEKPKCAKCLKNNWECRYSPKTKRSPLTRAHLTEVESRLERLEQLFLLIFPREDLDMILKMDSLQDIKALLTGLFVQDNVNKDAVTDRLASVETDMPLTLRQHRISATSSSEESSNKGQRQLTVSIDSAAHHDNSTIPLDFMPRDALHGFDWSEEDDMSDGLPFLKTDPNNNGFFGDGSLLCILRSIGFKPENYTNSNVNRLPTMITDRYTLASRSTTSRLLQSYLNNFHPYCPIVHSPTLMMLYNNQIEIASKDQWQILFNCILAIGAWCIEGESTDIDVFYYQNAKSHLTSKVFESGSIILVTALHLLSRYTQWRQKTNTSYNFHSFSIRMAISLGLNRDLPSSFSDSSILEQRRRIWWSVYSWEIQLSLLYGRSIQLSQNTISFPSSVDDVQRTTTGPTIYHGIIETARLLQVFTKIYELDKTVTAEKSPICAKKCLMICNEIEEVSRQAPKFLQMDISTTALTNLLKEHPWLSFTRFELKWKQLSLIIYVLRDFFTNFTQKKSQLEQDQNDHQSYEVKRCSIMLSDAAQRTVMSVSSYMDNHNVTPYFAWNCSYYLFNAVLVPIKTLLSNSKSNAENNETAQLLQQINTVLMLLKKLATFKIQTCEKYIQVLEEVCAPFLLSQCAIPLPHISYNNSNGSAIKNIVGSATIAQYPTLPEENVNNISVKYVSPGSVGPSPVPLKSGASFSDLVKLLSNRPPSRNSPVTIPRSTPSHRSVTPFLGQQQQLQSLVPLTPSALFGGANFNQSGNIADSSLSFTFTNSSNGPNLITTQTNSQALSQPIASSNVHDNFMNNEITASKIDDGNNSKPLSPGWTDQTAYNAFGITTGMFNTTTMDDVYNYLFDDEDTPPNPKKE
UniProt P17181: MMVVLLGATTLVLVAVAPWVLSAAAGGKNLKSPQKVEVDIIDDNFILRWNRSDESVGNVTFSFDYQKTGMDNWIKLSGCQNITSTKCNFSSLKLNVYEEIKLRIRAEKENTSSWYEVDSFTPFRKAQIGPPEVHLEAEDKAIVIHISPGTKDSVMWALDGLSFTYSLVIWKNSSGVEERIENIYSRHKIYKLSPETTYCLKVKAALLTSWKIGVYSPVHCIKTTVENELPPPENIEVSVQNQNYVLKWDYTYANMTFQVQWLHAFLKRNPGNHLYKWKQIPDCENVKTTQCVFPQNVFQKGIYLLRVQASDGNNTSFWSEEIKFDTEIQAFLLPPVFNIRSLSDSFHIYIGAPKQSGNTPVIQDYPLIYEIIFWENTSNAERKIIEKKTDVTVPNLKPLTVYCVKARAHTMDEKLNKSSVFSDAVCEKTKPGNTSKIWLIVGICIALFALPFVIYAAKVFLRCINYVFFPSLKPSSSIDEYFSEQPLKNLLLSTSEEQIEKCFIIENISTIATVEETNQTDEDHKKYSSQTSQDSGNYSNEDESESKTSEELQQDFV

What was measured:
[1] = target: T1, IFNAR1-IC domain fused to the Gal4 DNA-binding domain (pGBT10-IFNAR1-IC) (human) (UniProt P04386+P17181); experiment: yeast two-hybrid in SFY526, X-gal staining positive in streak 2
[2] = target: T1, IFNAR1-IC domain fused to the Gal4 DNA-binding domain (pGBT10-IFNAR1-IC) (human); experiment: yeast two-hybrid in SFY526
[3] = target: T1, IFNAR1-IC domain fused to the Gal4 DNA-binding domain (pGBT10-IFNAR1-IC) (human); experiment: yeast two-hybrid

Measured: binding

B1: IR1B1 fused to the Gal4 activation domain (pACT clone IR1B1) (protein, not shown: large carriers)
chain: MGGSGSRLSKELLAEYQDLTFLTKQEILLAHRRFCELLPQEQRSVESSLRAQVPFEQILSLPELKANPFKERICRVFSTSPAKDSLSFEDFLDLLSVFSDTATPDIKSHYAFRIFDFDDDGTLNREDLSRLVNCLTGEGEDTRLSASEMKQLIDYILEESDIDRDGTINLSEFQHVISRSPDFASSFKIVL
binds: [1] | [2] | [3]
